The chains behind the UniProt entries cited, without tags or fusion partners. Where a name states a change or a piece, a line headed by the entry shows the natural chain unless it says otherwise.
UniProt P00573: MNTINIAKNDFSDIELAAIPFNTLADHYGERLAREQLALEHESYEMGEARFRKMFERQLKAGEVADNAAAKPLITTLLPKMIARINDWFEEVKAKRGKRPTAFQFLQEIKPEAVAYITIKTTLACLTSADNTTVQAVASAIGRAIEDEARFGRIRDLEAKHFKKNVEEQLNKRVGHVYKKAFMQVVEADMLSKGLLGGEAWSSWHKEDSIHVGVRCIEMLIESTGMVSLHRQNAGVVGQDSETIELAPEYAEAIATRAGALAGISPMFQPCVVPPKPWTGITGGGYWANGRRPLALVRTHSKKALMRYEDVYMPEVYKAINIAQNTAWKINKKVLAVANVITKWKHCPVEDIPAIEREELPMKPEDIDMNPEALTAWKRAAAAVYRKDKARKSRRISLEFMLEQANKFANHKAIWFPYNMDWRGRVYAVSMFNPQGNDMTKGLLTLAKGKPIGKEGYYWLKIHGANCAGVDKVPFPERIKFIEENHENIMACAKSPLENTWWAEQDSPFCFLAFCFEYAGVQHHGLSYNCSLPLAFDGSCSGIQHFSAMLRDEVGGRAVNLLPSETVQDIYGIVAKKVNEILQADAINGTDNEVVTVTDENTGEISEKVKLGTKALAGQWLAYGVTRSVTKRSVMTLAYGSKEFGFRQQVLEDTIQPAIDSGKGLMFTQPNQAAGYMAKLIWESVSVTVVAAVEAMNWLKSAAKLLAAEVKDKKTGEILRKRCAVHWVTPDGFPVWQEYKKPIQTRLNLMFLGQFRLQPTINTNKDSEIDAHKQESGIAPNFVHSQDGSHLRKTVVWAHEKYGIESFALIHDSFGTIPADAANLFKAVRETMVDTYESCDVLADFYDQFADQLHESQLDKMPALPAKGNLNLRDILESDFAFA
UniProt P07659: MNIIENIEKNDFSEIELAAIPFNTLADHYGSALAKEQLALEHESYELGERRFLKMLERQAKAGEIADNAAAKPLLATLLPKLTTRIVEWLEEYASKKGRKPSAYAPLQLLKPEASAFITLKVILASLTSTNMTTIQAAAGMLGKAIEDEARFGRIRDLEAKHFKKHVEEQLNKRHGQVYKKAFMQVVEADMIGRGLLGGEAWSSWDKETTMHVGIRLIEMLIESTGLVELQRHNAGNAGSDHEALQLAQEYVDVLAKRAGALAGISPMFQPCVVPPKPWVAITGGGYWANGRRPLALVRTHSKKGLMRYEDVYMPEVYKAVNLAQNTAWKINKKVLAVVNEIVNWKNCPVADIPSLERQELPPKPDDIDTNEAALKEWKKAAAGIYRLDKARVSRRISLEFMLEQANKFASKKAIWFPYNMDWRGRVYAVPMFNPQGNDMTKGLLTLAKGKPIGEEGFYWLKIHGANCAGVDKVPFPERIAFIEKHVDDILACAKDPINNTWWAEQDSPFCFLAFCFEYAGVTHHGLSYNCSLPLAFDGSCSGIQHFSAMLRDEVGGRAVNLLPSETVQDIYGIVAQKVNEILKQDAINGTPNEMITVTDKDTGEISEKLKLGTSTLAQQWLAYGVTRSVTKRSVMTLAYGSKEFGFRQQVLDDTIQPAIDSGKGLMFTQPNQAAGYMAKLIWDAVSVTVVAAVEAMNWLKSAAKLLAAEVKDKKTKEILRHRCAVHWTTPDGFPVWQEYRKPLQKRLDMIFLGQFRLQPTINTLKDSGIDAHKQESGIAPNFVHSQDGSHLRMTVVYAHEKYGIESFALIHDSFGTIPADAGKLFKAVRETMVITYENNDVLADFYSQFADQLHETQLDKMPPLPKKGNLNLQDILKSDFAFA

According to patent US20020038016:

Experiments:
T7 RNA polymerase = T7 RNA polymerase (UniProt P00573); test: activity assay; settings: 3' n-propyl block, purified recombinant protein, protein details: Epicentre Technologies, single-stranded DNA
T3 RNA polymerase = T3 RNA polymerase (UniProt P07659); test: activity assay; settings: 3' n-propyl block, 49% without decoy, purified recombinant protein, protein details: Epicentre Technologies, single-stranded DNA

## GAAATCAATTCGACTCACTAAAGGGATATAA [decoy probe SEQ 13 (truncated SEQ 10)]
T7 RNA polymerase; indirect: T7 TAA with RT, 59% without decoy
  activity on this sequence (% positive amplifications): 69

## GTACTCAGATGCTGCACTGAAATTATTAACCCTCACTAAAGGGATATAA [decoy probe SEQ 8 (T3 promoter sequence)]
T3 RNA polymerase; indirect: T3 TAA with RT
  activity on this sequence (% positive amplifications): 65
T7 RNA polymerase; indirect: T7 TAA with RT, 67% without decoy, no enhancement
  activity on this sequence (% positive amplifications): 58

## GTACTCAGATGCTGTCACTGATCAGTACTCAGATGCTGTGATGCACTGATCAAA [decoy probe SEQ 14 (random sequence)]
T3 RNA polymerase; indirect: random control, no enhancement
  activity on this sequence (% positive amplifications): 50
T7 RNA polymerase; indirect: random control, 67% without decoy, no enhancement
  activity on this sequence (% positive amplifications): 46

## GTACTCAGATGCTGTCACTGATCATAATACGACTCACTATAGGGAGATAA [decoy probe SEQ 9 (T7 consensus promoter)]
T3 RNA polymerase; indirect: T3 TAA with RT
  activity on this sequence (% positive amplifications): 73
T7 RNA polymerase; indirect: T7 TAA with RT, 67% without decoy
  activity on this sequence (% positive amplifications): 79
